Reference: PMC5548744
These are yes or no findings as the source states them, for the method shown. Binding seen in cells or lysates may run through a third protein. Some results given as binding are weak or reduced against the parent protein; the word gives no strength. Each block holds one binder with its values, some of them ahead of it.

Protein sequences, listed by entry. Tags and fused reporters are not part of them.
UniProt Q8K371: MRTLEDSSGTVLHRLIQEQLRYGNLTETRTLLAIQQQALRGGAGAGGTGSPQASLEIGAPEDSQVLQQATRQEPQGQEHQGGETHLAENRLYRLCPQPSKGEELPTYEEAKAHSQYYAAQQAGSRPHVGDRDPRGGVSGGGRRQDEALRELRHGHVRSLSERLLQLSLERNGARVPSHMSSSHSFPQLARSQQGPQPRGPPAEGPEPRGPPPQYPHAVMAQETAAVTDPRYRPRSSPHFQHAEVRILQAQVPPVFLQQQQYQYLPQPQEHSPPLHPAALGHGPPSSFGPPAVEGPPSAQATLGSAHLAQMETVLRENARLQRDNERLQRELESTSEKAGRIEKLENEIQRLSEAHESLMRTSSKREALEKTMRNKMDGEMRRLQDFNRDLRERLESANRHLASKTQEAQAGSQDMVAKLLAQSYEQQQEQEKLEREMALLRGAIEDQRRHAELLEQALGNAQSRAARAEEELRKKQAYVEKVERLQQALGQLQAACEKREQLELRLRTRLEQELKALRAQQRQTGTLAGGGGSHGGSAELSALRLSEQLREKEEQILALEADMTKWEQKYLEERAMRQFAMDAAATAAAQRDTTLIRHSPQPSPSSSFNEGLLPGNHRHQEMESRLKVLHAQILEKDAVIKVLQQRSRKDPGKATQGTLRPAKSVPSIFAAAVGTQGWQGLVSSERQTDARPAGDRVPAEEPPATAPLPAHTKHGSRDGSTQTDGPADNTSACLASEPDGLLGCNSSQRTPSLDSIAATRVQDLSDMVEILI

Target: Angiomotin-Like-2 (AmotL2), endogenous in MS-1 mouse endothelial cells (mouse (endogenous in MS-1)) (UniProt Q8K371)
Test: co-IP; MS-1 cell lysate (50 mM Tris-HCl pH 7.6, 150 mM NaCl, 1 mM EDTA, 1% Nonidet P40); precipitated with rabbit antibody against the C-terminal motif of human amotL2, Protein G Sepharose, 4 °C; partners detected by western blot

binding: binds
B1: Par3, 150 kDa isoform, endogenous in MS-1 cells (protein, UniProt Q99NH2-2 1-1029)
chain: MKVTVCFGRTRVVVPCGDGRMKVFSLIQQAVTRYRKAVAKDPNYWIQVHRLEHGDGGILDLDDILCDVADDKDRLVAVFDEQDPHHGGDGTSASFTGTQSPEIFGSELGTNNVSAFQPYQATSEIEVTPSVLRANMPLHVRRSSDPALTGLSTSVSDNNFSSEEPSRKNPTRWSTTAGFLKQNTAGSPKTCDRKKDENYRSLPRDPSSWSNQFQRDNARSSLSASHPMVDRWLEKQEQDEEGTEEDSSRVEPVGHADTGLENMPNFSLDDMVKLVQVPNDGGPLGIHVVPFSARGGRTLGLLVKRLEKGGKAEQENLFHENDCIVRINDGDLRNRRFEQAQHMFRQAMRARVIWFHVVPAANKEQYEQLSQREKNNYSPGRFSPDSHCVANRSVANNAPQALPRAPRLSQPPEQLDAHPRLPHSAHASTKPPAAPALAPPSVLSTNVGSVYNTKKVGKRLNIQLKKGTEGLGFSITSRDVTIGGSAPIYVKNILPRGAAIQDGRLKAGDRLIEVNGVDLAGKSQEEVVSLLRSTKMEGTVSLLVFRQEEAFHPREMNAEPSQMQTPKETKAEDEDVVLTPDGTREFLTFEVPLNDSGSAGLGVSVKGNRSKENHADLGIFVKSIINGGAASKDGRLRVNDQLIAVNGESLLGKANQEAMETLRRSMSTEGNKRGMIQLIVARRISRCNELRSPGSPAAPELPIETELDDRERRISHSLYSGIEGLDESPTRNAALSRIMGKCQLSPTVNMPHDDTVMIEDDRLPVLPPHLSDQSSSSSHDDVGFIMTEAGTWAKATISDSADCSLSPDVDPVLAFQREGFGRQSMSEKRTKQFSDASQLDFVKTRKSKSMDLVADETKLNTVDDQRAGSPSRDVGPSLGLKKSSSLESLQTAVAEVTLNGNIPFHRPRPRIIRGRGCNESFRAAIDKSYDKPMVDDDDEGMETLEEDTEESSRSGRESVSTSSDQPSYSLERQMNGDPEKRDKTERKKDKAGKDKKKDREKEKDKLKAKKGMLKGLGDMFRFGKHRKDD

binding: binds
B2: Par3, 100 kDa isoform, endogenous in MS-1 cells (protein, UniProt Q99NH2-3 1-744)
chain: MKVTVCFGRTRVVVPCGDGRMKVFSLIQQAVTRYRKAVAKDPNYWIQVHRLEHGDGGILDLDDILCDVADDKDRLVAVFDEQDPHHGGDGTSASFTGTQSPEIFGSELGTNNVSAFQPYQATSEIEVTPSVLRANMPLHVRRSSDPALTGLSTSVSDNNFSSEEPSRKNPTRWSTTAGFLKQNTAGSPKTCDRKKDENYRSLPRDPSSWSNQFQRDNARSSLSASHPMVDRWLEKQEQDEEGTEEDSSRVEPVGHADTGLENMPNFSLDDMVKLVQVPNDGGPLGIHVVPFSARGGRTLGLLVKRLEKGGKAEQENLFHENDCIVRINDGDLRNRRFEQAQHMFRQAMRARVIWFHVVPAANKEQYEQLSQREKNNYSPGRFSPDSHCVANRSVANNAPQALPRAPRLSQPPEQLDAHPRLPHSAHASTKPPAAPALAPPSVLSTNVGSVYNTKKVGKRLNIQLKKGTEGLGFSITSRDVTIGGSAPIYVKNILPRGAAIQDGRLKAGDRLIEVNGVDLAGKSQEEVVSLLRSTKMEGTVSLLVFRQEEAFHPREMNAEPSQMQTPKETKAEDEDVVLTPDGTREFLTFEVPLNDSGSAGLGVSVKGNRSKENHADLGIFVKSIINGGAASKDGRLRVNDQLIAVNGESLLGKANQEAMETLRRSMSTEGNKRGMIQLIVARRISRCNELRSPGSPAAPELPIETELDDRERRISHSLYSGIEGLDESPTRNAALSRIMGESGT
